Taken from: PubChem BioAssay AID1224830 (NIAID, 2016)
This is a random part of about 18,000 reagents. About 2,900 of all reagents (16%) count as active. 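Calls are made per well; low scores hint the gene aids the LPS response, high scores that it dampens it.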 Repeated entries: four replicate wells of each siRNA pool. No sequences are given here.

Assay: 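Genes whose knock-down alters the TNF-alpha reporter response to LPS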 (primary screen)
Cell system: human THP-1 monocytic leukaemia cells, TNF dual-luciferase reporter clone, PMA-differentiated to macrophage-like cells
Knock-down reagent: siRNA pool against human genes, 50 nM
Timing: LPS for 4 h, given about 3 days after siRNA transfection
Treatment: bacterial LPS (TLR4 ligand), 10 ng/ml
Measurement: 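Ratio of firefly to renilla light, scaled to the plate median and expressed as a robust z-score per replicate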
Direction: TNF reporter robust z-score: higher = stronger TNF reporter response to LPS
Hit rule: 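Each well counts as active if its z-score is over 2.8 or under -1.5; controls are left without a call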

| target | TNF reporter robust z-score | Outcome |
| --- | --- | --- |
| RTBDN | -0.23 | inactive |
| RTBDN | -0.33 | inactive |
| RTBDN | -0.02 | inactive |
| RTBDN | -0.1 | inactive |
| ADCY2 | 2.77 | inactive |
| ADCY2 | 2.54 | inactive |
| ADCY2 | 0.42 | inactive |
| ADCY2 | 0.63 | inactive |
| NLGN1 | -0.96 | inactive |
| NLGN1 | -1.86 | active |
| NLGN1 | -0.25 | inactive |
| NLGN1 | -1.33 | inactive |
| SYCP3 | -1.16 | inactive |
| SYCP3 | -0.98 | inactive |
| SYCP3 | -0.71 | inactive |
| SYCP3 | -0.68 | inactive |
| PIK3R5 | 0.28 | inactive |
| PIK3R5 | 0.04 | inactive |
| PIK3R5 | -0.7 | inactive |
| PIK3R5 | 0.33 | inactive |
| MTHFD2 | -0.66 | inactive |
| MTHFD2 | 0.63 | inactive |
| MTHFD2 | 0.22 | inactive |
| MTHFD2 | 0.07 | inactive |
| DENND2D | 0.31 | inactive |
| DENND2D | 0.98 | inactive |
| DENND2D | 0.84 | inactive |
| DENND2D | -0.11 | inactive |
| UBE2Q2 | -0.93 | inactive |
| UBE2Q2 | -0.4 | inactive |
| UBE2Q2 | 0.26 | inactive |
| UBE2Q2 | -0.13 | inactive |
| FGF11 | -0.19 | inactive |
| FGF11 | -0.42 | inactive |
| FGF11 | -0.4 | inactive |
| FGF11 | -0.56 | inactive |
| BANF2 | -0.77 | inactive |
| BANF2 | -1.41 | inactive |
| BANF2 | -0.32 | inactive |
| BANF2 | 0.11 | inactive |
| GCNT3 | 0.93 | inactive |
| GCNT3 | 0.62 | inactive |
| GCNT3 | 0.04 | inactive |
| GCNT3 | 0.56 | inactive |
| ZBTB24 | 0.61 | inactive |
| ZBTB24 | -0.52 | inactive |
| ZBTB24 | -0.25 | inactive |
| ZBTB24 | 0.05 | inactive |
| GNA15 | -1.04 | inactive |
| GNA15 | -0.75 | inactive |
| GNA15 | -0.96 | inactive |
| GNA15 | -0.06 | inactive |
| CHMP4A | -0.65 | inactive |
| CHMP4A | 0.76 | inactive |
| CHMP4A | 0.39 | inactive |
| CHMP4A | 0.14 | inactive |
| CDA | -0.44 | inactive |
| CDA | -0.62 | inactive |
| CDA | 0.11 | inactive |
| CDA | -0.84 | inactive |
| EBI3 | -1.1 | inactive |
| EBI3 | -1.72 | active |
| EBI3 | -0.87 | inactive |
| EBI3 | -1.08 | inactive |
| TCF23 | -0.42 | inactive |
| TCF23 | 0.24 | inactive |
| TCF23 | -0.19 | inactive |
| TCF23 | 0.32 | inactive |
| EXOSC1 | 1.49 | inactive |
| EXOSC1 | 0.53 | inactive |
| EXOSC1 | 0.48 | inactive |
| EXOSC1 | 2.03 | inactive |
| MNAT1 | 0 | inactive |
| MNAT1 | 4.07 | active |
| MNAT1 | -1.61 | active |
| MNAT1 | 1.41 | inactive |
| HCCS | 1.76 | inactive |
| HCCS | 1.2 | inactive |
| HCCS | -0.46 | inactive |
| HCCS | 2.35 | inactive |
| EPHX3 | 1.14 | inactive |
| EPHX3 | 0.8 | inactive |
| EPHX3 | 0.96 | inactive |
| EPHX3 | 1.2 | inactive |

13 of these entries in another layout.
BANF2: TNF reporter robust z-score = -0.32; Outcome = inactive
BANF2: TNF reporter robust z-score = 0.11; Outcome = inactive
GCNT3: TNF reporter robust z-score = 0.93; Outcome = inactive
GCNT3: TNF reporter robust z-score = 0.62; Outcome = inactive
GCNT3: TNF reporter robust z-score = 0.04; Outcome = inactive
GCNT3: TNF reporter robust z-score = 0.56; Outcome = inactive
ZBTB24: TNF reporter robust z-score = 0.61; Outcome = inactive
ZBTB24: TNF reporter robust z-score = -0.52; Outcome = inactive
ZBTB24: TNF reporter robust z-score = -0.25; Outcome = inactive
ZBTB24: TNF reporter robust z-score = 0.05; Outcome = inactive
GNA15: TNF reporter robust z-score = -1.04; Outcome = inactive
GNA15: TNF reporter robust z-score = -0.75; Outcome = inactive
GNA15: TNF reporter robust z-score = -0.96; Outcome = inactive

The results go on.
| target | TNF reporter robust z-score | Outcome |
| --- | --- | --- |
| CNGA2 | 0.97 | inactive |
| CNGA2 | 0.09 | inactive |
| CNGA2 | -1.17 | inactive |
| CNGA2 | 0.76 | inactive |
| IGDCC4 | 0.74 | inactive |
| IGDCC4 | 0.2 | inactive |
| IGDCC4 | 1.02 | inactive |
| IGDCC4 | 1.25 | inactive |
| MKKS | -0.28 | inactive |
| MKKS | -0.68 | inactive |
| MKKS | -0.9 | inactive |
| MKKS | -0.11 | inactive |
| SOX17 | -0.88 | inactive |
| SOX17 | -1.03 | inactive |
| SOX17 | -0.55 | inactive |
| SOX17 | -0.8 | inactive |
| AMBRA1 | -0.17 | inactive |
| AMBRA1 | 2.28 | inactive |
| AMBRA1 | -0.41 | inactive |
| AMBRA1 | 1.82 | inactive |
| PGPEP1 | -0.62 | inactive |
| PGPEP1 | 0.08 | inactive |
| PGPEP1 | -0.99 | inactive |
| PGPEP1 | 1.43 | inactive |
| RNF41 | -1.57 | active |
| RNF41 | 0.06 | inactive |
| RNF41 | 1.26 | inactive |
| RNF41 | 2.37 | inactive |
| MARCO | 0.52 | inactive |
| MARCO | 2.25 | inactive |
| MARCO | 0.42 | inactive |
| MARCO | 2.21 | inactive |
| ST6GALNAC1 | 1.18 | inactive |
| ST6GALNAC1 | 3.1 | active |
| ST6GALNAC1 | 2.27 | inactive |
| ST6GALNAC1 | 3.77 | active |
| BUD23 | -0.57 | inactive |
| BUD23 | 0.09 | inactive |
| BUD23 | 0.57 | inactive |
| BUD23 | 1.16 | inactive |
| ETV4 | -0.57 | inactive |
| ETV4 | 0.44 | inactive |
| ETV4 | -0.28 | inactive |
| ETV4 | 0.25 | inactive |
| LPAL2 | 0.88 | inactive |
| LPAL2 | 1.66 | inactive |
| LPAL2 | 2.7 | inactive |
| LPAL2 | 0.16 | inactive |
| MCM3AP | -1.76 | active |
| MCM3AP | -1.42 | inactive |
| MCM3AP | -1.27 | inactive |
| MCM3AP | -1.31 | inactive |
| RELL1 | 0.67 | inactive |
| RELL1 | -0.27 | inactive |
| RELL1 | -1.14 | inactive |
| RELL1 | -1.05 | inactive |
